In article PMC6160236, “Disrupted structure and aberrant function of CHIP mediates the loss of motor and cognitive function in preclinical models of SCAR16” (PLoS Genetics, 2018) one finds binding data, which are given here for five substances.

Sequences of proteins named here, by UniProt entry; tags and fusion partners are left off. A change or cut given only in a name is not applied to a line headed by its entry.
UniProt Q9UNE7: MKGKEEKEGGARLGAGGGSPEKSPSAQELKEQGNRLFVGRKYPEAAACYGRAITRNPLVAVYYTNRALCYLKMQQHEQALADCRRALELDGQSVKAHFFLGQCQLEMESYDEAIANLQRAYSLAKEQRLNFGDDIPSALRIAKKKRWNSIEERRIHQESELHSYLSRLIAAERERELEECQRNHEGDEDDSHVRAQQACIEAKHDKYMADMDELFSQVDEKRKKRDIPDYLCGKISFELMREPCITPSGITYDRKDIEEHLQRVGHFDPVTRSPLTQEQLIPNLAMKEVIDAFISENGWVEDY
UniProt Q9WUD1: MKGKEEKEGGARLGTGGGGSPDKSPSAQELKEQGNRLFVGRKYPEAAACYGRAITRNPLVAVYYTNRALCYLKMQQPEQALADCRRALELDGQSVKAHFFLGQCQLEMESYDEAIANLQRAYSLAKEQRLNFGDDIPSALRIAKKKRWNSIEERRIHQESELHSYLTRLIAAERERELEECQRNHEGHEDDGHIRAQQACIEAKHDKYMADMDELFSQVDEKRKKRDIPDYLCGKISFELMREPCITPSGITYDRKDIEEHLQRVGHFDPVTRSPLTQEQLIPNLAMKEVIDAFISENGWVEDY

Results are given in words; binding and its absence hold for the method and conditions named. For part of these data: Binding seen in cells or lysates may run through a third protein. Some binding calls cover weakened binding; strength is not graded here.

Experiment [1] deals with myc-CHIP-H260Q (pcDNA3-mycCHIP-H260Q) (human) (UniProt Q9UNE7). In words: native gel or EMSA; blue native PAGE (4-16% NativePAGE) of fresh lysates of transfected COS-7 cells, immunoblot with anti-myc. (A gel shift assay detects complexes by their altered migration in electrophoresis.)
Experiment [2] addresses myc-CHIP-T246M (pcDNA3-mycCHIP-T246M) (human) (UniProt Q9UNE7). Described as above.
Experiment [3] has as its target HA-CHIP wild type (pcDNA3-HA-CHIP) (human) (UniProt Q9UNE7). The experiment in a line: co-IP; COS-7 cells co-transfected with HA-WT and Myc-TM; immunoprecipitation with Anti-HA or Anti-Myc affinity gel, immunoblot. A general note: Immunoblotting shows a protein as a band on a membrane.
For experiment [4], the target named is endogenous mouse CHIP, wild type (T246/T246 mice) (mouse (endogenous in MEFs and mouse tissue)) (UniProt Q9WUD1). The experiment in a line: native gel or EMSA; blue native PAGE of fresh mouse cerebellum and testes extracts (Native PAGE sample buffer, 1% digitonin), immunoblot for CHIP; recombinant CHIP run as a reference.
For experiment [5], the target named is myc-CHIP-T246M (pcDNA3-mycCHIP-T246M) (human) (UniProt Q9UNE7). The experiment in a line: co-IP; COS-7 cells co-transfected with HA-WT and Myc-TM; immunoprecipitation with Anti-HA or Anti-Myc affinity gel, immunoblot.
Experiment [6] addresses endogenous mouse CHIP-T246M (murine T247M, M246/M246 mice) (mouse (endogenous in MEFs and mouse tissue)) (UniProt Q9WUD1). In words: native gel or EMSA; blue native PAGE of fresh mouse cerebellum and testes extracts (Native PAGE sample buffer, 1% digitonin), immunoblot for CHIP; recombinant CHIP run as a reference.

For the substance “myc-CHIP-H260Q (pcDNA3-mycCHIP-H260Q) (from UniProt Q9UNE7 1-303) (enzyme)”, the binding entry in experiment [1] is listed as “binds”.
On to “myc-CHIP-T246M (pcDNA3-mycCHIP-T246M) (from UniProt Q9UNE7 1-303) (enzyme)”, for which the binding entry in experiment [2] and in experiment [3] was “binds” throughout.
On to “endogenous mouse CHIP, wild type (T246/T246 mice) (from UniProt Q9WUD1 1-304) (enzyme)”, for which the binding entry in experiment [4] is “binds”.
Regarding “HA-CHIP wild type (pcDNA3-HA-CHIP) (from UniProt Q9UNE7 1-303) (enzyme)”, the binding result in experiment [5] is “binds”.
Consider “endogenous mouse CHIP-T246M (murine T247M, M246/M246 mice) (from UniProt Q9WUD1 1-304) (enzyme)”, for which, in experiment [6], the binding entry is “binds”.
